# Source: the supplement of paper PMC8728848
# The other results are listed elsewhere or left out.
# B1: CTLX (Homo sapiens), Q6UXS0 (protein)
# chain: SLCPLFWMEFKGHCYRFFPLNKTWAEADLYCSEFSVGRKSAKLASIHSWEENVFVYDLVNSCVPGIPADVWTGLHDHRQEGQFEWTDGSSYDYSYWDGSQPDDGVHADPEEEDCVQIWYRPTSALRSWNDNTCSRKFPFVCKIPSLTIH
# Assays:
# Assay in all cases: glycan array binding signal (z-score within array); higher = stronger binding
# Conditions in all cases: glycan notation: IUPAC condensed, linker removed
# [1] = biological target: GlcNAc(a1-6)Gal(b1-4)GlcNAc
# Outline: (§1)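 The binding signal is a Z-score computed within each array. Data were drawn from 3228 arrays in the Consortium for Functional Glycomics database, restricted to those with a known protein sequence. Scores were averaged over arrays of the same protein sequence at different concentrations or buffers, and over linkers, and negative values can be taken as non-binding.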
# [2] = biological target: GlcNAc(b1-2)Gal(b1-3)GalNAc
# Outline: as §1
# [3] = biological target: GlcNAc(b1-2)Man(a1-3)[GlcNAc(b1-2)Man(a1-6)]Man(b1-4)GlcNAc(b1-4)GlcNAc
# Outline: as §1
# [4] = biological target: GlcNAc(b1-2)Man(a1-3)[GlcNAc(b1-2)Man(a1-6)]Man(b1-4)GlcNAc(b1-4)[Fuc(a1-6)]GlcNAc
# Outline: as §1
# GlcNAc(b1-3)Gal = biological target: GlcNAc(b1-3)Gal
# Outline: as §1
# [5] = biological target: GlcNAc(b1-3)Gal(b1-3)GalNAc
# Outline: as §1
# GlcNAc(b1-3)Gal(b1-4)Glc = biological target: GlcNAc(b1-3)Gal(b1-4)Glc
# Outline: as §1
# [6] = biological target: GlcNAc(b1-3)Gal(b1-4)GlcNAc
# Outline: as §1
# [7] = biological target: GlcNAc(b1-3)Gal(b1-4)GlcNAc(b1-3)Gal(b1-4)GlcNAc
# Outline: as §1
# GlcNAc(b1-3)GalNAc = biological target: GlcNAc(b1-3)GalNAc
# Outline: as §1
# GlcNAc(b1-3)Man = biological target: GlcNAc(b1-3)Man
# Outline: as §1
# [8] = biological target: GlcNAc(b1-3)[GlcNAc(b1-4)][GlcNAc(b1-6)]GlcNAc
# Outline: as §1
# [9] = biological target: GlcNAc(b1-3)[GlcNAc(b1-6)]Gal(b1-4)GlcNAc
# Outline: as §1
# [10] = biological target: GlcNAc(b1-3)[GlcNAc(b1-6)]GalNAc
# Outline: as §1
# [11] = biological target: GlcNAc(b1-4)Gal(b1-4)GlcNAc
# Outline: as §1
# GlcNAc(b1-4)GlcNAc = biological target: GlcNAc(b1-4)GlcNAc
# Outline: as §1
# [12] = biological target: GlcNAc(b1-4)GlcNAc(b1-4)GlcNAc
# Outline: as §1
# [13] = biological target: GlcNAc(b1-4)GlcNAc(b1-4)GlcNAc(b1-4)GlcNAc(b1-4)GlcNAc
# Outline: as §1
# [14] = biological target: GlcNAc(b1-4)GlcNAc(b1-4)GlcNAc(b1-4)GlcNAc(b1-4)GlcNAc(b1-4)GlcNAc
# Outline: as §1
# [15] = biological target: GlcNAc(b1-4)[GlcNAc(b1-6)]GalNAc
# Outline: as §1
# [16] = biological target: GlcNAc(b1-6)Gal(b1-4)GlcNAc
# Outline: as §1
# GlcNAc(b1-6)GalNAc = biological target: GlcNAc(b1-6)GalNAc
# Outline: as §1
# GlcNAc3Prop(b1-4)GlcNAc = biological target: GlcNAc3Prop(b1-4)GlcNAc
# Outline: as §1
# [17] = biological target: GlcNAc6S(b1-3)Gal(b1-4)GlcNAc
# Outline: as §1
# Kdn(a2-3)Gal(b1-3)GalNAc = biological target: Kdn(a2-3)Gal(b1-3)GalNAc
# Outline: as §1
# Kdn(a2-3)Gal(b1-3)GlcNAc = biological target: Kdn(a2-3)Gal(b1-3)GlcNAc
# Outline: as §1
# Kdn(a2-3)Gal(b1-4)Glc = biological target: Kdn(a2-3)Gal(b1-4)Glc
# Outline: as §1
# Kdn(a2-3)Gal(b1-4)GlcNAc = biological target: Kdn(a2-3)Gal(b1-4)GlcNAc
# Outline: as §1
# [18] = biological target: Kdn(a2-3)Gal(b1-4)[Fuc(a1-3)]GlcNAc
# Outline: as §1
# Kdn(a2-6)Gal(b1-4)GlcNAc = biological target: Kdn(a2-6)Gal(b1-4)GlcNAc
# Outline: as §1
# [19] = biological target: Man(a1-2)Man(a1-2)Man(a1-3)Man
# Outline: as §1
# [20] = biological target: Man(a1-2)Man(a1-2)Man(a1-6)[Man(a1-3)]Man
# Outline: as §1
# Man(a1-2)Man(a1-3)Man = biological target: Man(a1-2)Man(a1-3)Man
# Outline: as §1
# [21] = biological target: Man(a1-2)Man(a1-3)[Man(a1-2)Man(a1-6)]Man
# Outline: as §1
# [22] = biological target: Man(a1-2)Man(a1-3)[Man(a1-2)Man(a1-6)]Man(a1-6)[Man(a1-2)Man(a1-2)Man(a1-3)]Man
# Outline: as §1
# [23] = biological target: Man(a1-2)Man(a1-3)[Man(a1-2)Man(a1-6)]Man(a1-6)[Man(a1-2)Man(a1-2)Man(a1-3)]Man(b1-4)GlcNAc(b1-4)GlcNAc
# Outline: as §1
# [24] = biological target: Man(a1-2)Man(a1-3)[Man(a1-6)]Man(a1-6)[Man(a1-2)Man(a1-3)]Man(b1-4)GlcNAc(b1-4)GlcNAc
# Outline: as §1
# [25] = biological target: Man(a1-2)Man(a1-6)[Man(a1-3)]Man(a1-6)[Man(a1-2)Man(a1-2)Man(a1-3)]Man
# Outline: as §1
# [26] = biological target: Man(a1-2)Man(a1-6)[Man(a1-3)]Man(a1-6)[Man(a1-2)Man(a1-2)Man(a1-3)]Man(b1-4)GlcNAc(b1-4)GlcNAc
# Outline: as §1
# Man(a1-3)[Man(a1-6)]Man = biological target: Man(a1-3)[Man(a1-6)]Man
# Outline: as §1
# [27] = biological target: Man(a1-3)[Man(a1-6)]Man(a1-6)[Man(a1-2)Man(a1-3)]Man(b1-4)GlcNAc(b1-4)GlcNAc
# Outline: as §1
# [28] = biological target: Man(a1-3)[Man(a1-6)]Man(a1-6)[Man(a1-3)]Man
# Outline: as §1
# [29] = biological target: Man(a1-3)[Man(a1-6)]Man(a1-6)[Man(a1-3)]Man(b1-4)GlcNAc(b1-4)GlcNAc
# Outline: as §1
# [30] = biological target: Man(a1-3)[Man(a1-6)]Man(b1-4)GlcNAc(b1-4)GlcNAc
# Outline: as §1
# Man(a1-6)Man = biological target: Man(a1-6)Man
# Outline: as §1
binder,measurement,setting,value
B1,glycan array binding signal (z-score),[1],1.64
same,glycan array binding signal (z-score),[2],-0.988
same,glycan array binding signal (z-score),[3],0.268
same,glycan array binding signal (z-score),[4],1.54
same,glycan array binding signal (z-score),GlcNAc(b1-3)Gal,-0.481
same,glycan array binding signal (z-score),[5],4.33
same,glycan array binding signal (z-score),GlcNAc(b1-3)Gal(b1-4)Glc,-0.052
same,glycan array binding signal (z-score),[6],-0.402
same,glycan array binding signal (z-score),[7],-0.368
same,glycan array binding signal (z-score),GlcNAc(b1-3)GalNAc,-1.1
same,glycan array binding signal (z-score),GlcNAc(b1-3)Man,-0.486
same,glycan array binding signal (z-score),[8],-0.646
same,glycan array binding signal (z-score),[9],-0.952
same,glycan array binding signal (z-score),[10],0.077
same,glycan array binding signal (z-score),[11],-0.206
same,glycan array binding signal (z-score),GlcNAc(b1-4)GlcNAc,1.3
same,glycan array binding signal (z-score),[12],-0.487
same,glycan array binding signal (z-score),[13],-0.43
same,glycan array binding signal (z-score),[14],-1.05
same,glycan array binding signal (z-score),[15],-0.699
same,glycan array binding signal (z-score),[16],0.922
same,glycan array binding signal (z-score),GlcNAc(b1-6)GalNAc,-0.029
same,glycan array binding signal (z-score),GlcNAc3Prop(b1-4)GlcNAc,-0.857
same,glycan array binding signal (z-score),[17],1.72
same,glycan array binding signal (z-score),Kdn(a2-3)Gal(b1-3)GalNAc,1.45
same,glycan array binding signal (z-score),Kdn(a2-3)Gal(b1-3)GlcNAc,-0.296
same,glycan array binding signal (z-score),Kdn(a2-3)Gal(b1-4)Glc,-0.174
same,glycan array binding signal (z-score),Kdn(a2-3)Gal(b1-4)GlcNAc,-0.699
same,glycan array binding signal (z-score),[18],0.498
same,glycan array binding signal (z-score),Kdn(a2-6)Gal(b1-4)GlcNAc,0.359
same,glycan array binding signal (z-score),[19],-0.284
same,glycan array binding signal (z-score),[20],-0.523
same,glycan array binding signal (z-score),Man(a1-2)Man(a1-3)Man,0.183
same,glycan array binding signal (z-score),[21],-0.178
same,glycan array binding signal (z-score),[22],-0.381
same,glycan array binding signal (z-score),[23],-0.548
same,glycan array binding signal (z-score),[24],-0.346
same,glycan array binding signal (z-score),[25],0.48
same,glycan array binding signal (z-score),[26],-0.308
same,glycan array binding signal (z-score),Man(a1-3)[Man(a1-6)]Man,-0.586
same,glycan array binding signal (z-score),[27],-0.848
same,glycan array binding signal (z-score),[28],-0.932
same,glycan array binding signal (z-score),[29],-1.14
same,glycan array binding signal (z-score),[30],-0.295
same,glycan array binding signal (z-score),Man(a1-6)Man,0.105
